Reference: publication PMC9045296 (Microbiology Spectrum, 2022)
Plain letter strings leave the end groups untold.

Test: general procedure: Fmoc solid-phase peptide synthesis; Wang resin 100–200 mesh; HCTU/DIEA
Details: whole synthesis, scale of the general procedure 0.05 to 0.1 mmol

Row | Sequence | crude yield | final purity (method not given) | isolated yield
1 | SGIAWGGIK | 97.54% | 81.1% | 66.3%
2 | SESGIAWGG | 98.76% | 70.5% | 34.2%
